Reference: PMC6175882
These are yes or no findings as the source states them, for the method shown. Binding seen in cells or lysates may run through a third protein. Some binding calls cover weakened binding; strength is not graded here.

Chains of the proteins cited; added tags and fusions are not shown.
UniProt Q92922: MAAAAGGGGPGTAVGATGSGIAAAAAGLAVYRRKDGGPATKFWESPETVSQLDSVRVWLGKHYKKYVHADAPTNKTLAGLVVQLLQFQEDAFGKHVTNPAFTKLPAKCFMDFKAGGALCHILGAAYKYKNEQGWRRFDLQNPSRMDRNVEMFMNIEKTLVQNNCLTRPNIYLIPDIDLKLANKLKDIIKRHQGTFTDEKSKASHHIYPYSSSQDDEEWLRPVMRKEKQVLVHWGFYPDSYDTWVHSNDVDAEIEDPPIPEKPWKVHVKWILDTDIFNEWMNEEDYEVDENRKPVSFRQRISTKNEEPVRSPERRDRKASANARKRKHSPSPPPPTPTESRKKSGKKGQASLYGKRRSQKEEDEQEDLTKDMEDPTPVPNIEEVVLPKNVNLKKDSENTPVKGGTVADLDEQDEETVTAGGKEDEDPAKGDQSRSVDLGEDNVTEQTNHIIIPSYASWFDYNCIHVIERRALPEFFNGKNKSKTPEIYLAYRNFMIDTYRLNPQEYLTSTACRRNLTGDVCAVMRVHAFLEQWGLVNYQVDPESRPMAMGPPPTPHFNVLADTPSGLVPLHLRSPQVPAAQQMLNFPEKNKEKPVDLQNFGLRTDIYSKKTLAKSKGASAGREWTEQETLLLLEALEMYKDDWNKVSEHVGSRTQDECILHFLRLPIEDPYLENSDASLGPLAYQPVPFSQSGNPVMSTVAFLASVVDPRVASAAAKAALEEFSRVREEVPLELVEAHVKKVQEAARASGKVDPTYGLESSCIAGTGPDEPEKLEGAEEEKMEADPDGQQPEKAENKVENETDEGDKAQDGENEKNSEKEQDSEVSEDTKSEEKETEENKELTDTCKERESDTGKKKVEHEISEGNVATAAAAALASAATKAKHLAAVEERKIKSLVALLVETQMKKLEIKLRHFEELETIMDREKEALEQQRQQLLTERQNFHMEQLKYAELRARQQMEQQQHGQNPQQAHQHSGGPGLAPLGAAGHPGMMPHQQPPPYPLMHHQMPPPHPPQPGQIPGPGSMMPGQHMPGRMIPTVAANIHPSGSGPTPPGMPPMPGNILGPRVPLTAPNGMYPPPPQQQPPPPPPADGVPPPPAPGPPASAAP
UniProt Q12824: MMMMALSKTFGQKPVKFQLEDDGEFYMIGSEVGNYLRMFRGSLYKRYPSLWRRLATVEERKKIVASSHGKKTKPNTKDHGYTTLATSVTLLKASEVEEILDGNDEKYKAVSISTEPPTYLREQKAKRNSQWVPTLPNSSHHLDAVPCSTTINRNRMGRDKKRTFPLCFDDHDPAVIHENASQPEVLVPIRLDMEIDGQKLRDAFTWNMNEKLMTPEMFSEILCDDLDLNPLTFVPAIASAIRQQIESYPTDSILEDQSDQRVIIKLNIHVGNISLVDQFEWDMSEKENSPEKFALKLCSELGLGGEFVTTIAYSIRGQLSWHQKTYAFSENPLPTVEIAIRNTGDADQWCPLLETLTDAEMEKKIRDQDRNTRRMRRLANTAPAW
UniProt P51531: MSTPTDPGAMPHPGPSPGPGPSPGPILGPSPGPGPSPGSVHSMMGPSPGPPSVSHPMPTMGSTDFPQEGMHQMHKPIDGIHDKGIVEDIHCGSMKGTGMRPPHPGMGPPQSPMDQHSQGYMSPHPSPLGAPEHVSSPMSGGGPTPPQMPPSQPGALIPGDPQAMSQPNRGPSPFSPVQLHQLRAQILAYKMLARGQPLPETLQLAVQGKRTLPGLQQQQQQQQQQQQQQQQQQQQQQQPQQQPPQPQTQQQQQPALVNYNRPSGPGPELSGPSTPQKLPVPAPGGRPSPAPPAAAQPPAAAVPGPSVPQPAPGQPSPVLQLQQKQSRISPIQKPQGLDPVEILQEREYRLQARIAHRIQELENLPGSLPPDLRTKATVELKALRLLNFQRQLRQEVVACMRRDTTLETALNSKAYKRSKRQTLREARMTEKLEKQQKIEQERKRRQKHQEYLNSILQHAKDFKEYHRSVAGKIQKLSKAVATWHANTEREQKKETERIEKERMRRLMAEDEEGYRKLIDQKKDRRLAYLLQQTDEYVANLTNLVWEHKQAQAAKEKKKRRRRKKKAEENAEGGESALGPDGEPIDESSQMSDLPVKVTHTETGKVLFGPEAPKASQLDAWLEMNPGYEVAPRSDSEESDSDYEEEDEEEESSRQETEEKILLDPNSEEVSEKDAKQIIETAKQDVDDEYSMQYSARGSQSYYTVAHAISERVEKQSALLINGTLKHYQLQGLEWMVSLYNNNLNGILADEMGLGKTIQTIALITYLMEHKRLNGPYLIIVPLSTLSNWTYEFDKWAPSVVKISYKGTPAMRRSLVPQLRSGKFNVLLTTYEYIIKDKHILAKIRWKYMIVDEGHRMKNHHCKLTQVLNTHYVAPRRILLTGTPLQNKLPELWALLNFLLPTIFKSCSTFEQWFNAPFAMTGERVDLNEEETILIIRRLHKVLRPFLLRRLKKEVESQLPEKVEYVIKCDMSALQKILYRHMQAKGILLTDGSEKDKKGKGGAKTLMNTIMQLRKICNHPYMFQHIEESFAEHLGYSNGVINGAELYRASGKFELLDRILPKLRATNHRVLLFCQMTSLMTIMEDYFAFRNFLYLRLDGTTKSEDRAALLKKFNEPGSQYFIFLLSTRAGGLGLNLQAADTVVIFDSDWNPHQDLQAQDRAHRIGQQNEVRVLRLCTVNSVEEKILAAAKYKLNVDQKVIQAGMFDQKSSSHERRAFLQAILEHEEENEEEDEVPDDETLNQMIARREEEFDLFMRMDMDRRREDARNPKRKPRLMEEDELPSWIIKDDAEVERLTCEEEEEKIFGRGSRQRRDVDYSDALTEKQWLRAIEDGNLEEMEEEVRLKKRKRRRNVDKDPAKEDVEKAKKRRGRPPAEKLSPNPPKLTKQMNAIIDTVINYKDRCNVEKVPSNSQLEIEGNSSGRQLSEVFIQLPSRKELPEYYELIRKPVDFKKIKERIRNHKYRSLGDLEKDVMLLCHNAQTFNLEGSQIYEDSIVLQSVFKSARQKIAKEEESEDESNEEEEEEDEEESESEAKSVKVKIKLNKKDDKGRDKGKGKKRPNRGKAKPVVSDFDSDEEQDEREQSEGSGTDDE
UniProt P51532: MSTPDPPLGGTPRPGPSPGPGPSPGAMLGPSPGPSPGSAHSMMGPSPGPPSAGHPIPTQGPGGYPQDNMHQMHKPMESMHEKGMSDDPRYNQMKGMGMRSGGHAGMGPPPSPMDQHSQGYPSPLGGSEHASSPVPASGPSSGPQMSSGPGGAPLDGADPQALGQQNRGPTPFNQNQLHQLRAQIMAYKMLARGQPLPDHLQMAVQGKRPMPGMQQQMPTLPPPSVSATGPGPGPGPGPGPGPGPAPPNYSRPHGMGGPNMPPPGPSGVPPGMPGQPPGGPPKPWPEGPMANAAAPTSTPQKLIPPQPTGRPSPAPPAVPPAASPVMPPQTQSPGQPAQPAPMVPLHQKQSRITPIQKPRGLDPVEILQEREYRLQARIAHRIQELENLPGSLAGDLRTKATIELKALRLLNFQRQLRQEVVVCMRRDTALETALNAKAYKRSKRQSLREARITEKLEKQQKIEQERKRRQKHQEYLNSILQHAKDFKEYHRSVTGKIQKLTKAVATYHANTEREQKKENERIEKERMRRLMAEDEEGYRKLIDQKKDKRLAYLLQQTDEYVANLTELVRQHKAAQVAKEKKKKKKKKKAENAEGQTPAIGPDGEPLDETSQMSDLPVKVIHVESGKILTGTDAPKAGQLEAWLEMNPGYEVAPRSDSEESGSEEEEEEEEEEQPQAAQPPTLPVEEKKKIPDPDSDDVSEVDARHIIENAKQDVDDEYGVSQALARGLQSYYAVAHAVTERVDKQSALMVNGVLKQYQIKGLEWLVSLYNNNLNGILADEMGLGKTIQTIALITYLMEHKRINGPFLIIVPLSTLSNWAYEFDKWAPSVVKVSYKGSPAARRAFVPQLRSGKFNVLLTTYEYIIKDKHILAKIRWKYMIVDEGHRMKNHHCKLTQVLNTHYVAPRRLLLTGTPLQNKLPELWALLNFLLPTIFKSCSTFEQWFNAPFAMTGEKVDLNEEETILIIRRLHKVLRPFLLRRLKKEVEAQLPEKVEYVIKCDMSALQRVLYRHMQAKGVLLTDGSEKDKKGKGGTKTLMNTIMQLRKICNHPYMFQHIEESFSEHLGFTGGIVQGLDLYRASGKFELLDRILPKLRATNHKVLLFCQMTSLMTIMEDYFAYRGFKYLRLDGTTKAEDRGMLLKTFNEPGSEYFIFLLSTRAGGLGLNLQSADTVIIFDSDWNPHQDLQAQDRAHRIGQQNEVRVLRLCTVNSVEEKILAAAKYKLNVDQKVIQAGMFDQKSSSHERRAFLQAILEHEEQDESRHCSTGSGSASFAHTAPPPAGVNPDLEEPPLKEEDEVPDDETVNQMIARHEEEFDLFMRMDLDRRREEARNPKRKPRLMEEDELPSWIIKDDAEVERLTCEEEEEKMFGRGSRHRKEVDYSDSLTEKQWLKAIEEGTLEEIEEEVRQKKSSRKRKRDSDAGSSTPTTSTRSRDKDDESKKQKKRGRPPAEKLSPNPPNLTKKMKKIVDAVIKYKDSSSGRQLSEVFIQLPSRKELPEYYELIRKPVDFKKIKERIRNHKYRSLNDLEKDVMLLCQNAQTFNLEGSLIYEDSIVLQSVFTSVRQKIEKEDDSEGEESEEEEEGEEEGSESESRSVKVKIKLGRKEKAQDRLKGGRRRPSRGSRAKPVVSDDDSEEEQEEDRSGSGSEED

Legend:
[1] = target: SMARCC1 (human (endogenous in TOV21G)) (UniProt Q92922); assay: co-IP; endogenous proteins; antibodies to SMARCC1 (BAF155) or SMARCB1 (SNF5), isotype-matched IgG as control; nuclear fractions of parental and resistant TOV21G cells, and of TOV21G cells with or without SMARCA4 knockdown; immunoblot
[2] = target: SMARCB1 (human (endogenous in TOV21G)) (UniProt Q12824); assay: as above

| binding [1] | binding [2] | Substance |
| --- | --- | --- |
| binds |  | SMARCA2 (from UniProt P51531 1-1590) |
|  | binds | SMARCA4 (from UniProt P51532 1-1647) |
